Laboratory results reported in publication doi:10.1101/2024.10.15.618347.

Target: YTHDC1 YTH domain (UniProt Q96MU7)
Assay: EMSA
Settings: 0.13-2 uM protein, 2 nM RNA, residues 345-509

AACUUAAUGUUUUUGCAUUGGACUUUGAGUU [MALAT1 oligo, unmodified]
binding result: binds more weakly

Construct, isoform or probe ends are uncertain for at least one entry. The comparison behind a weaker result is the experiment's own reference, which may not be listed here. At least one verdict rests on a figure or table, not on a statement of the authors.
